From publication PMC7819943, “Rice protein-binding microarrays: a tool to detect cis-acting elements near promoter regions in rice”
This is one part of the list.

Sequences of proteins named here, by UniProt entry; tags and fusion partners are left off.
UniProt Q0JBA9, entry or part of it: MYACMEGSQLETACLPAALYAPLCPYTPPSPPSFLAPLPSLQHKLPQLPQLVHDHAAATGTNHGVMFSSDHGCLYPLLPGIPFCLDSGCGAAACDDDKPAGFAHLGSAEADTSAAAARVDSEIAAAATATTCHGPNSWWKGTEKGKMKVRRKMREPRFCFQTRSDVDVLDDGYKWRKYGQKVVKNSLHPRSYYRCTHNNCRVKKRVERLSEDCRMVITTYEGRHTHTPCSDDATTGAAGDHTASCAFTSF

target: OsWRKY34 (Oryza sativa, UniProt Q0JBA9 1-250); test: protein-binding microarray (RPBM); PBS, 2% BSA, 51.3 ng/ul salmon testes DNA, 50 uM zinc acetate, 200 nM TF, 25 C, 1 h; high values mean tight binding; settings: protein: recombinant; tags: N-terminal polyhistidine and DsRed monomer fusion (pET32a); label: CyDye5-dUTP incorporated in the synthesized complementary strand; 3' TTTTT single-stranded linker to array surface; dsDNA, one strand shown
How it was run: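 In PBS with 2% BSA, salmon testes DNA and 50 µM zinc acetate, 200 nM protein was incubated on a custom Agilent array at 25 °C for 1 h and then washed off. The array had been made double-stranded by primer extension with Cy5-dUTP and blocked with 2% BSA. The proteins were transcription factors fused N-terminally to polyhistidine and DsRed, expressed in E. coli BL21-CodonPlus and purified on Ni–NTA. The binding signal is per-feature fluorescence intensity (arbitrary units) from an Axon 4000B scanner.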

Sequence	binding signal
CCGCCCTCGACTCCCGTCTCCTCGCCTGCCGCTGGCGCCGCGGAGTCACCTAGTGCAG	8490 fluorescence intensity (a.u.)
GATGTTTTCACTTCTTTTTCAGGTTGACTGTCATAATTTTCGGAGTCACCTAGTGCAG	11800 fluorescence intensity (a.u.)
CCCGCGCCGGACGCCCGCCAATGAGCATTCCCGGTTTTTTCGGAGTCACCTAGTGCAG	8280 fluorescence intensity (a.u.)
AGGGTTTCGCGTCACGGAGGGGAGGGGATCGAGAGCTCCTCGGAGTCACCTAGTGCAG	12000 fluorescence intensity (a.u.)
CCCTGGAGCTGTAGTACTACTGTTTTCTTTTTCCCTTTTACGGAGTCACCTAGTGCAG	9250 fluorescence intensity (a.u.)
CCACTTTCTCTCTCATCTCACATTCTCTTTCTCTCTCTCTCGGAGTCACCTAGTGCAG	8340 fluorescence intensity (a.u.)
GGTGGAGGTGGAGATATATCCATTATACATGTGTCATGTGCGGAGTCACCTAGTGCAG	13000 fluorescence intensity (a.u.)
CTCTCTCTCTCTCTCTCTCTCTCTCTTGCCATTTAAAAGACGGAGTCACCTAGTGCAG	9660 fluorescence intensity (a.u.)
ATAGAGGGAGCTTCACCTGTTGCTTTGCGCCACGTGTCATCGGAGTCACCTAGTGCAG	8620 fluorescence intensity (a.u.)
AGTTCGGATCCAAACTTCAGTCCTTTTCCATCACATCAACCGGAGTCACCTAGTGCAG	8540 fluorescence intensity (a.u.)
GAGATATTGGACATATTAGGTTTTTACGAGTAATTTGCATCGGAGTCACCTAGTGCAG	8430 fluorescence intensity (a.u.)
CTGTCCGAGGTCGTTTACTGGTCAGATATATCCATATATTCGGAGTCACCTAGTGCAG	8330 fluorescence intensity (a.u.)
AGCCGGGGAGGGGTAGTTTTAGGGTTCGGAGGGCACCATGCGGAGTCACCTAGTGCAG	15700 fluorescence intensity (a.u.)
TCAGGCTCTCACTCGCGCTGCATGCCACACTGCTTCTTCTCGGAGTCACCTAGTGCAG	16400 fluorescence intensity (a.u.)
GGTGAAGCTCTGCGCTGACACGTTGATGCAGCGGAGCACGCGGAGTCACCTAGTGCAG	18900 fluorescence intensity (a.u.)
TCTCTGACGCCAGATCAACTGCACGATTTCTCCAATCTTTCGGAGTCACCTAGTGCAG	8860 fluorescence intensity (a.u.)
AGAGGTTTGGGGTTGGTTCATCTCGCGGGCTTGGGCGGCGCGGAGTCACCTAGTGCAG	14400 fluorescence intensity (a.u.)
ATGTTGTTCTCTCCCTATTTATCTCTCAGCGTCTCTATGTCGGAGTCACCTAGTGCAG	9510 fluorescence intensity (a.u.)
AGCGATACTCTACTGCTACCTTGTCCCAACATGCTGGGCTCGGAGTCACCTAGTGCAG	8260 fluorescence intensity (a.u.)
TCCTTAATTTTCATTTCTTTTTCTTAACCACTTAATTACTCGGAGTCACCTAGTGCAG	8930 fluorescence intensity (a.u.)
CACTTCTCCACGCCGCCGTCGCTGAGTTCTCCTTATCTTCCGGAGTCACCTAGTGCAG	11400 fluorescence intensity (a.u.)

Sequence	binding signal
CATGTTGTAGCACATTTGGCATCTCTCCAGTAATGACTAACGGAGTCACCTAGTGCAG	8060 fluorescence intensity (a.u.)
TTTACATATTGACTTTTCGAGCTCATTTGTCATGCCCCGTCGGAGTCACCTAGTGCAG	8620 fluorescence intensity (a.u.)
GCTGGCTTGACCTGTTCTTCCGGACTCCGTTTCGTTCCCACGGAGTCACCTAGTGCAG	9430 fluorescence intensity (a.u.)
GTATAGTACATGTAGCTCTTAAAATTTTGTTGCAATCGCACGGAGTCACCTAGTGCAG	9830 fluorescence intensity (a.u.)
GCTCTCTCATTTTCATAATTTAAGTCATTAGTTTTATTCTCGGAGTCACCTAGTGCAG	9180 fluorescence intensity (a.u.)
GTCATCCTCTCCTACACCAGTACCGGTCATCCAACACATTCGGAGTCACCTAGTGCAG	9280 fluorescence intensity (a.u.)
TCACGCTGACCAAACACCATCTGTTATTCTGTTTGTTTGTCGGAGTCACCTAGTGCAG	9030 fluorescence intensity (a.u.)
GTGCTGCGCGCGTCCGTTTTCTTGGCTGTTCTTGGGTGGGCGGAGTCACCTAGTGCAG	8690 fluorescence intensity (a.u.)
TCCATCCAGCTTCAGCCGCCACCGGTCTCCATCCCGTCCTCGGAGTCACCTAGTGCAG	9330 fluorescence intensity (a.u.)
TTGGTTGGGTGCAGCGTAGCAATCAGTTGGGCGGGTGGGGCGGAGTCACCTAGTGCAG	14000 fluorescence intensity (a.u.)
GTGGCTCGCGATCATATTGTCTCTATGCTTATCCATGTGCCGGAGTCACCTAGTGCAG	9070 fluorescence intensity (a.u.)
AAGCTAAATATATCCGTACTCACGCTTTTTTAAACTATTTCGGAGTCACCTAGTGCAG	8220 fluorescence intensity (a.u.)
CCAGACAGCCTCTCCTTGCCGTTGATCCACACACACACAACGGAGTCACCTAGTGCAG	9480 fluorescence intensity (a.u.)
AGCAGCTGCTCAAGATTGCTCGTTGGTGTGGGAGAAGATCCGGAGTCACCTAGTGCAG	9570 fluorescence intensity (a.u.)
GGCCATCTCTTTCCATTCTCTCCTCACATCATCTTGATAGCGGAGTCACCTAGTGCAG	12100 fluorescence intensity (a.u.)
CCCCAAGCCTTTATTCCCTCCCATTTCTCCCGCTCACTTTCGGAGTCACCTAGTGCAG	8190 fluorescence intensity (a.u.)
CCTATTCTAACACTGACGGGTGGGTCTCACAGGGTGACTCCGGAGTCACCTAGTGCAG	16900 fluorescence intensity (a.u.)
ACGCATTTCTCGTCTTCACAAACGTACGTACGGTCTCACTCGGAGTCACCTAGTGCAG	8090 fluorescence intensity (a.u.)
GACTCATTATTATCTGGCTAGTTCATTTTCATGTTATTTTCGGAGTCACCTAGTGCAG	14900 fluorescence intensity (a.u.)
ACTTGCAGTTCCAGGTTATTGAGGTCAGACGGGTCGTTGACGGAGTCACCTAGTGCAG	8800 fluorescence intensity (a.u.)
CCACTGCTGATGCTCCTCTTCTTGCTCGGTTTCTTTCTCCCGGAGTCACCTAGTGCAG	8350 fluorescence intensity (a.u.)

Taken from above:
Value of CCAGACAGCCTCTCCTTGCCGTTGATCCACACACACACAACGGAGTCACCTAGTGCAG under binding signal: 9480 fluorescence intensity (a.u.)
Value of GACTCATTATTATCTGGCTAGTTCATTTTCATGTTATTTTCGGAGTCACCTAGTGCAG under binding signal: 14900 fluorescence intensity (a.u.)
Value of TCACGCTGACCAAACACCATCTGTTATTCTGTTTGTTTGTCGGAGTCACCTAGTGCAG under binding signal: 9030 fluorescence intensity (a.u.)
